Publication PMC10912226, “Filament formation drives catalysis by glutaminase enzymes important in cancer progression” (Nature Communications, 2024)
No constants are given. Whether binding was seen depends on the method and setting. Some results given as binding are weak or reduced against the parent protein; the word gives no strength.

Chains of the proteins cited; added tags and fusions are not shown. Lines headed by an entry give the natural chain unless they say otherwise; changes in a name come on top. A line that says so, or that is headed by a name, gives the form on record, which may keep a tag or linker.
human GAC (Y466W) mutant (O94925-3, form named): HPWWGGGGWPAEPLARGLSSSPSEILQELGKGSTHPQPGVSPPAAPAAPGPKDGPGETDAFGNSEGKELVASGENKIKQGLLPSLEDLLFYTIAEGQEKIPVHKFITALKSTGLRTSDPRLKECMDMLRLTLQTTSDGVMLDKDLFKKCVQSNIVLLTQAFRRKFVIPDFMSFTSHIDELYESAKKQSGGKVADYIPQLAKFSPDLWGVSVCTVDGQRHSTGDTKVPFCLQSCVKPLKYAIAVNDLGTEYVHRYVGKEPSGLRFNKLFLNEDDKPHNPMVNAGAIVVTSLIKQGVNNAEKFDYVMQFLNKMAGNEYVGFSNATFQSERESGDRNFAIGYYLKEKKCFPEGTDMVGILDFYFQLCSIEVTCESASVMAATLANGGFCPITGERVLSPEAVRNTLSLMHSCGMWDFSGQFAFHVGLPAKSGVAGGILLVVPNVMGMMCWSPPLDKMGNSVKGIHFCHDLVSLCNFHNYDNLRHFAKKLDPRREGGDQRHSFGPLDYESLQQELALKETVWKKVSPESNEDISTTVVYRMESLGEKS
constitutively active human GAC (K320A) (O94925-3, form named): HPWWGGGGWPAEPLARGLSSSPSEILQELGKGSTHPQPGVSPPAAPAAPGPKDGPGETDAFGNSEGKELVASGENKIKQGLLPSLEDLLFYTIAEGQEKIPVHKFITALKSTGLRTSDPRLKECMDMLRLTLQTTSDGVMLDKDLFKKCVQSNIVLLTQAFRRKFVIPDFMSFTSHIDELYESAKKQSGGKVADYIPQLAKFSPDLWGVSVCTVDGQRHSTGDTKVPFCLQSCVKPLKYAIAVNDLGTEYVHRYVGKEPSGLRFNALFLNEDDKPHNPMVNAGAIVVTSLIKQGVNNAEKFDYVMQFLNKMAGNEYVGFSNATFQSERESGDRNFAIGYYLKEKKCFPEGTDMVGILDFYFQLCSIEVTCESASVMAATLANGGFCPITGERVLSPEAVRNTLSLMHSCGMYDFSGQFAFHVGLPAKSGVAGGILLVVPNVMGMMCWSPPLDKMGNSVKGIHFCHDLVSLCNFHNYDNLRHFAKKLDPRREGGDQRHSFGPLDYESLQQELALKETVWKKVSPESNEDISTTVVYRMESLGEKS
recombinant wild-type human glutaminase C (GAC) (O94925-3, form named): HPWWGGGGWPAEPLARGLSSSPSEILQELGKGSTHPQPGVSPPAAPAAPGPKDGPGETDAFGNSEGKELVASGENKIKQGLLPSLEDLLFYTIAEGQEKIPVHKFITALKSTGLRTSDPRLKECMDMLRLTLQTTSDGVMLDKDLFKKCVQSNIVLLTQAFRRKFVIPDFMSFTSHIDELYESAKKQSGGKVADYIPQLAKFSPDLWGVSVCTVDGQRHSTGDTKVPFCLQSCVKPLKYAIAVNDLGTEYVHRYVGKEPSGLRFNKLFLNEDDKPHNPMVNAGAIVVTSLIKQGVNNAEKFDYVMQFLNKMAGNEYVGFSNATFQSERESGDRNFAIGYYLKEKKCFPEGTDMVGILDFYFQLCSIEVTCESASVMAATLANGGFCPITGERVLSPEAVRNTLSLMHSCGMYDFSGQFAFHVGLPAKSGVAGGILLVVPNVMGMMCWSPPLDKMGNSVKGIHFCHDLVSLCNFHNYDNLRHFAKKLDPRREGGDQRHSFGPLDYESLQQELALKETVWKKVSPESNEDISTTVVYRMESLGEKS

Legend:
[1] = molecular target: human GAC (Y466W) mutant (human) (UniProt O94925); assay: cryo-EM structure; GAC (Y466W) 8 µM with 20 mM glutamine and 1 M inorganic phosphate; helical reconstruction, D2 symmetry; filament of tetramers; both purified
[2] = molecular target: human GAC (Y466W) mutant (human) (UniProt O94925); assay: right-angle light scattering (RALS); glutaminase 2 µM in 20 mM Tris-HCl pH 8.5, 150 mM NaCl, 25 °C, 340 nm; with Pi (50-100 mM) and glutamine 20 mM; step: tetramers to filament; both purified
[3] = molecular target: human GAC (Y466W) mutant (human) (UniProt O94925); assay: condition: only with UPGL0004 (1 µM); filament step; negative stain electron microscopy; GAC (Y466W) 1 µM with Pi 200 mM and UPGL0004 1 µM, 30 s after adding substrate 20 mM; step: tetramers to filament; both purified
[4] = molecular target: human GAC (Y466W) mutant (human) (UniProt O94925); assay: negative stain electron microscopy; glutaminase 1 µM with glutamine 20 mM and inorganic phosphate (50-200 mM), RT, 30 s to 1 min after mixing (GAC Y466W with DMSO also 30 min); step: tetramers to filament; both purified
[5] = molecular target: constitutively active human GAC (K320A) (human) (UniProt O94925); assay: negative stain electron microscopy; constitutively active mutants with glutamine alone, no Pi; step: tetramers to filament; both purified
[6] = molecular target: constitutively active human GAC (K320A) (human) (UniProt O94925); assay: right-angle light scattering (RALS); constitutively active mutants, 20 mM Tris-HCl pH 8.5, 150 mM NaCl, 25 °C, 340 nm; glutamine alone, no Pi; step: tetramers to filament; both purified
[7] = molecular target: recombinant wild-type human glutaminase C (GAC) (human) (UniProt O94925); assay: negative stain electron microscopy; glutaminase 1 µM with glutamine 20 mM and inorganic phosphate (50-200 mM), RT, 30 s to 1 min after mixing (GAC Y466W with DMSO also 30 min); step: tetramers to filament; both purified
[8] = molecular target: human liver-type glutaminase GLS2, wild type, without the mitochondrial localization sequence (residue 38-602) (human) (UniProt Q9UI32); assay: condition: only with compound 968 (10 µM); filament step; negative stain electron microscopy; GLS2 1 µM with Pi 50 mM and compound 968 10 µM, 30 s after adding substrate 20 mM; step: tetramers to filament; both purified
[9] = molecular target: human liver-type glutaminase GLS2, wild type, without the mitochondrial localization sequence (residue 38-602) (human) (UniProt Q9UI32); assay: condition: only without glutamine (Pi alone); filament step; right-angle light scattering (RALS); GLS2 2 µM in 20 mM Tris-HCl pH 8.5, 150 mM NaCl, 25 °C, 340 nm; with Pi, without glutamine; step: tetramers to filament; both purified
[10] = molecular target: human liver-type glutaminase GLS2, wild type, without the mitochondrial localization sequence (residue 38-602) (human) (UniProt Q9UI32); assay: condition: only glutamate (20 mM) in place of glutamine; filament step; right-angle light scattering (RALS); GLS2 2 µM with Pi 100 mM, 25 °C, 340 nm; glutamate 20 mM added instead of glutamine; step: tetramers to filament; both purified

Question: With “human GAC (Y466W) mutant (from UniProt O94925-3 55-598) (enzyme)” as the molecule, how does the binding [1] read?
Answer: The binding was “binds”.

Question: What about the binding [2] of the same molecule?
Answer: The binding was “binds”.

Question: What about the binding [3] of the same molecule?
Answer: The binding was “no binding”.

Question: And the binding [4]?
Answer: The binding was “binds”.

Question: Which binding [5] does the source give for “constitutively active human GAC (K320A) (from UniProt O94925-3 55-598) (enzyme)” here?
Answer: Its binding is “binds”.

Question: And the binding [6]?
Answer: The binding was “binds”.

Question: With “recombinant wild-type human glutaminase C (GAC) (from UniProt O94925-3 55-598) (enzyme)” as the molecule, how does the binding [7] read?
Answer: Its binding is “binds”.

B1: human liver-type glutaminase GLS2, wild type, without the mitochondrial localization sequence (residue 38-602) (enzyme, UniProt Q9UI32 38-602, looked up)
chain: HHLSEAAAQGRETPHSHQPQHQDHDSSESGMLSRLGDLLFYTIAEGQERIPIHKFTTALKATGLQTSDPRLRDCMSEMHRVVQESSSGGLLDRDLFRKCVSSNIVLLTQAFRKKFVIPDFEEFTGHVDRIFEDVKELTGGKVAAYIPQLAKSNPDLWGVSLCTVDGQRHSVGHTKIPFCLQSCVKPLTYAISISTLGTDYVHKFVGKEPSGLRYNKLSLNEEGIPHNPMVNAGAIVVSSLIKMDCNKAEKFDFVLQYLNKMAGNEYMGFSNATFQSEKETGDRNYAIGYYLKEKKCFPKGVDMMAALDLYFQLCSVEVTCESGSVMAATLANGGICPITGESVLSAEAVRNTLSLMHSCGMYDFSGQFAFHVGLPAKSAVSGAILLVVPNVMGMMCLSPPLDKLGNSHRGTSFCQKLVSLFNFHNYDNLRHCARKLDPRREGAEIRNKTVVNLLFAAYSGDVSALRRFALSAMDMEQKDYDSRTALHVAAAEGHIEVVKFLIEACKVNPFAKDRWGNIPLDDAVQFNHLEVVKLLQDYQDSYTLSETQAEAAAEALSKENLESMV
notes: Tetramer in the apo state (cryo-EM); tetramers stack into filaments with glutamine and Pi; also called LGA; apo-GLS2; source: E. coli BL21 (DE3), purified (Co2+ TALON resin, HiTrap Q anion exchange, Superdex 200 SEC)
Question: Which results are given for B1?
Answer: binding [8]: no binding; binding [9]: no binding; binding [10]: no binding
